Assay results from patent US20230227832, “ANTICANCER APTAMERS AND USES THEREOF” (CONSIGLIO NAZIONALE DELLE RICERCHE, published 2023).
Where cells or extracts were used, other partners may take part.

Chains of the proteins cited; added tags and fusions are not shown. Residues count along the entry.
UniProt O60565, 25-184: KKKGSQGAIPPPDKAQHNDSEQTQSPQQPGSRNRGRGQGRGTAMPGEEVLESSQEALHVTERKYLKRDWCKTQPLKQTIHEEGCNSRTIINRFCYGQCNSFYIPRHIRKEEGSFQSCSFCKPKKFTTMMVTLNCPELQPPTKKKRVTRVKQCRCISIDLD

Legend:
[1] = molecular target: Gremlin-1 (GREM1), overexpressed in U87MG (UniProt O60565); assay: pull-down; details: 2'-F pyrimidines (2'-F-C, 2'-F-U; per library chemistry); whole lysate of U87MG transfected with GREM1 vector; streptavidin bead pulldown, GREM1 immunoblot; protein in a lysate after overexpression; label: biotin
[2] = molecular target: Gremlin-1 (GREM1), overexpressed from transfected cDNA in U87MG cells (UniProt O60565); assay: binding assay; details: 2'-F pyrimidines (2'-F-C, 2'-F-U; per library chemistry); binding to U87MG cells increases upon GREM1 overexpression; exosomes from GREM1-transfected cells also bound more (FIG. 7F); protein in cells; label: biotin

Which results are given for “UGUGGCAGUUAAGAAUAGAUCUUCGCUGCGAUU [ex-50.T]”?
binding result [1]: binds; binding result [2]: binds
